{"sequences": {"note": "Sequences of proteins named here, by UniProt entry; tags and fusion partners are left off. A change or cut given only in a name is not applied to a line headed by its entry.", "UniProt Q92538, whole entry, looked up": "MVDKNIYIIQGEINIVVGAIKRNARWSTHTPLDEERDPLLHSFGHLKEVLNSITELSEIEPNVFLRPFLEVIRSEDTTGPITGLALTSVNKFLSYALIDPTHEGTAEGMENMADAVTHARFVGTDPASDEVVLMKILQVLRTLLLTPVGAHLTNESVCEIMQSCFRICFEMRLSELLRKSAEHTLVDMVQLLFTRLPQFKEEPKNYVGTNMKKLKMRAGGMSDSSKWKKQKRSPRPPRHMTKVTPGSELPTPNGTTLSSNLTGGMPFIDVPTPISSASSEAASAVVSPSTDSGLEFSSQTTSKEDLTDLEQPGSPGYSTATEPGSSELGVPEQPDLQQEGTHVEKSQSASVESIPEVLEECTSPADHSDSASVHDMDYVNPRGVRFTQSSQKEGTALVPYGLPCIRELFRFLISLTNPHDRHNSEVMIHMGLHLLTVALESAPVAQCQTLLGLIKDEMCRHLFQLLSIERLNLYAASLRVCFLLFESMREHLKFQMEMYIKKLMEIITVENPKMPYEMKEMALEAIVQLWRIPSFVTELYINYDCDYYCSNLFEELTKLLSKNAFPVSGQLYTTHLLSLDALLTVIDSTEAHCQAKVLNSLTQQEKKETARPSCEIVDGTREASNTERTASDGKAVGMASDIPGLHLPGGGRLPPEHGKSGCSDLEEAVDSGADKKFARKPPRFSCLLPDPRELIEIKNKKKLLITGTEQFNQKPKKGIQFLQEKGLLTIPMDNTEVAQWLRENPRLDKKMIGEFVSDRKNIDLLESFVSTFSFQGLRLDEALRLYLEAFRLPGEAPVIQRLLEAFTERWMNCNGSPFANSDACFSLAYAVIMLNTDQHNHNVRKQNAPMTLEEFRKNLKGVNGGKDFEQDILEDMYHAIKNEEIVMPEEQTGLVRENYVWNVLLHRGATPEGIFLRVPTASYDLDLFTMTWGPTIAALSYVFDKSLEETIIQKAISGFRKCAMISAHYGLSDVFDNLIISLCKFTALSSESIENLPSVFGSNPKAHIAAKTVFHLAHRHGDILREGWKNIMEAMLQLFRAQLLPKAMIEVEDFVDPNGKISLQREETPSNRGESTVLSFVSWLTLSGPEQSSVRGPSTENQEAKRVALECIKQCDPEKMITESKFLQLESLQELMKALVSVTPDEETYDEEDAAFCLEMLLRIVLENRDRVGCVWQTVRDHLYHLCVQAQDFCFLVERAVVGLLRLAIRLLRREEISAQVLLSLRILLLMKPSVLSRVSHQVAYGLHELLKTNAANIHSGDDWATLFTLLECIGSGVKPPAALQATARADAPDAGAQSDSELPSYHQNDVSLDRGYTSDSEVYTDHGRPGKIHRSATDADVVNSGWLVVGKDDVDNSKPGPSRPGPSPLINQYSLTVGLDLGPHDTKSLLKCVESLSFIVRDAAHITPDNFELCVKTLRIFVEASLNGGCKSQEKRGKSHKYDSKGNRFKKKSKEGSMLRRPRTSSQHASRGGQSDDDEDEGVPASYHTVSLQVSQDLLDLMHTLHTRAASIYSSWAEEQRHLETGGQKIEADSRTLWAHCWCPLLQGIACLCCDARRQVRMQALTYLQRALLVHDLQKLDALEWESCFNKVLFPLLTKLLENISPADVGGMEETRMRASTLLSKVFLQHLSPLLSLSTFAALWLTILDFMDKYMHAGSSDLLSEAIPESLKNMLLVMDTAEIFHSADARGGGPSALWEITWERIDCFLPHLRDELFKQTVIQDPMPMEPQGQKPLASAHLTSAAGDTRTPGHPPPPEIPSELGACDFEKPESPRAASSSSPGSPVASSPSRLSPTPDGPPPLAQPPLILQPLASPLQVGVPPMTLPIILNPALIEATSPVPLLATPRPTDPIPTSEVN", "UniProt Q92769, whole entry, looked up": "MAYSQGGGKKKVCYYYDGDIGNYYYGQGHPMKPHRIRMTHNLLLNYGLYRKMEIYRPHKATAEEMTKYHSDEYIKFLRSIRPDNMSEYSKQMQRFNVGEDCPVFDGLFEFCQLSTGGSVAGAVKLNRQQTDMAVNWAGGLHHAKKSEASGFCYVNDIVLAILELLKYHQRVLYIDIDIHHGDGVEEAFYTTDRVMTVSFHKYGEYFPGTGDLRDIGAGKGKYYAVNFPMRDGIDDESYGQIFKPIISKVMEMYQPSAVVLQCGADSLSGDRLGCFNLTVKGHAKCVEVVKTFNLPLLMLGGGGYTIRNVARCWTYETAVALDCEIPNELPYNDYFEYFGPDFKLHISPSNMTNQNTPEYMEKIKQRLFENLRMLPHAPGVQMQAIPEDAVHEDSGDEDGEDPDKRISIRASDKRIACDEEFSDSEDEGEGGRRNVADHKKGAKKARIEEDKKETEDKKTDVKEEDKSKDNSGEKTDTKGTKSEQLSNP", "UniProt Q99613, whole entry, looked up": "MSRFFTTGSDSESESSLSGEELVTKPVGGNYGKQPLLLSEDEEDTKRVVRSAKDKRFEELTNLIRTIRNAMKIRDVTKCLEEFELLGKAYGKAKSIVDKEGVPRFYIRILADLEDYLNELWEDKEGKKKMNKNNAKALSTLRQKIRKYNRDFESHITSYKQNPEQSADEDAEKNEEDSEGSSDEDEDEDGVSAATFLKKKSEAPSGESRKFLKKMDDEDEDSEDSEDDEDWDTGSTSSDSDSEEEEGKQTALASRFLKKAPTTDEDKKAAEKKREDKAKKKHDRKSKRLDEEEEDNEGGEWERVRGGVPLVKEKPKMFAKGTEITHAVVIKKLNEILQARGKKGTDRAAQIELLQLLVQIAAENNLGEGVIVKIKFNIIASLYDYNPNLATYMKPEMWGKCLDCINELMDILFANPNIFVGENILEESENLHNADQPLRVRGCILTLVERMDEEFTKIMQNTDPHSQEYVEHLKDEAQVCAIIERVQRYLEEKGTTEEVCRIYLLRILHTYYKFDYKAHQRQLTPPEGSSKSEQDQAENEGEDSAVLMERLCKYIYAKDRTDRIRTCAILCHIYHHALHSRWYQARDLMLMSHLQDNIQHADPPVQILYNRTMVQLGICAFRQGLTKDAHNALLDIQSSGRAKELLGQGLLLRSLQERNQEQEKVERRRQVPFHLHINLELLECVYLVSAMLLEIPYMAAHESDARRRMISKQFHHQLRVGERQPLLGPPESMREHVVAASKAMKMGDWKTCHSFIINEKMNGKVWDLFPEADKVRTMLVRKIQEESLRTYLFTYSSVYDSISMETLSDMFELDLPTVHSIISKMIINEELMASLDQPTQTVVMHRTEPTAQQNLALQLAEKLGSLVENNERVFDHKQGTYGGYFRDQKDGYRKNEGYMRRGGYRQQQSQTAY", "UniProt Q9H6Y2": "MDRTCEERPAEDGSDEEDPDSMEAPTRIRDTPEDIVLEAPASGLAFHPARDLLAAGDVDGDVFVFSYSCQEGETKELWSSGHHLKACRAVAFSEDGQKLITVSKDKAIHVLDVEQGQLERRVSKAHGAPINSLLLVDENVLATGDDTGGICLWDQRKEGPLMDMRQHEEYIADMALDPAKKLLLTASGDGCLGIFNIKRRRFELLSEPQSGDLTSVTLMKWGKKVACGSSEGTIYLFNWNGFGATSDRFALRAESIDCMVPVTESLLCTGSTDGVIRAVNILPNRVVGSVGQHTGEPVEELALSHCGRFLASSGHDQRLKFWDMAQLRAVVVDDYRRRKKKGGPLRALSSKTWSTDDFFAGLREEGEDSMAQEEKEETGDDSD", "UniProt Q9NW82": "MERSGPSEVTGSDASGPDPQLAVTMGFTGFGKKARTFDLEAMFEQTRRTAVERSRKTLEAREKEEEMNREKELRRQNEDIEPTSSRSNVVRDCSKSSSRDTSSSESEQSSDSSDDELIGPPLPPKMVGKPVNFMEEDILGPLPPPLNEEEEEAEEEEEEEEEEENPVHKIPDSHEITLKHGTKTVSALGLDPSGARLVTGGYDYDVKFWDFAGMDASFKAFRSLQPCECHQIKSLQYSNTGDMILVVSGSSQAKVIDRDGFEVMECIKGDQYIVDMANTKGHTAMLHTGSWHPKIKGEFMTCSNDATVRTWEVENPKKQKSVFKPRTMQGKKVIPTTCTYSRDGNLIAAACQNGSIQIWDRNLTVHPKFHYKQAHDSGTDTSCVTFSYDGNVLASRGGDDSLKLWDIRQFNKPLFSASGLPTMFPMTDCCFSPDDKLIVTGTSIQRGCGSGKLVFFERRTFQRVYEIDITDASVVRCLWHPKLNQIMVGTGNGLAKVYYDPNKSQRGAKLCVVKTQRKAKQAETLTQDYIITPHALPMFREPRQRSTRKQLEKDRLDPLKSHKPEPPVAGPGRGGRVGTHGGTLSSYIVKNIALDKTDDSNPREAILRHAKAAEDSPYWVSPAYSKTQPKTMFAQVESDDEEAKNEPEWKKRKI", "UniProt Q9BQA1, whole entry": "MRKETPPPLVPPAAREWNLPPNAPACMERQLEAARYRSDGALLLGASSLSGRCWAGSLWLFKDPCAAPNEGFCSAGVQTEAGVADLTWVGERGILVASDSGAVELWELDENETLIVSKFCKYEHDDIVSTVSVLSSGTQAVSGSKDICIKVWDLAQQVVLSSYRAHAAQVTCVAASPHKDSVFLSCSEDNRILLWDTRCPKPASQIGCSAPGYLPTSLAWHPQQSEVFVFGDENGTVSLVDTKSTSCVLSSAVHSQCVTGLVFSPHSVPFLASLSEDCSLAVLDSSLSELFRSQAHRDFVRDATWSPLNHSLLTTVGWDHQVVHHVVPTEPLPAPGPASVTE", "UniProt P18887, whole entry": "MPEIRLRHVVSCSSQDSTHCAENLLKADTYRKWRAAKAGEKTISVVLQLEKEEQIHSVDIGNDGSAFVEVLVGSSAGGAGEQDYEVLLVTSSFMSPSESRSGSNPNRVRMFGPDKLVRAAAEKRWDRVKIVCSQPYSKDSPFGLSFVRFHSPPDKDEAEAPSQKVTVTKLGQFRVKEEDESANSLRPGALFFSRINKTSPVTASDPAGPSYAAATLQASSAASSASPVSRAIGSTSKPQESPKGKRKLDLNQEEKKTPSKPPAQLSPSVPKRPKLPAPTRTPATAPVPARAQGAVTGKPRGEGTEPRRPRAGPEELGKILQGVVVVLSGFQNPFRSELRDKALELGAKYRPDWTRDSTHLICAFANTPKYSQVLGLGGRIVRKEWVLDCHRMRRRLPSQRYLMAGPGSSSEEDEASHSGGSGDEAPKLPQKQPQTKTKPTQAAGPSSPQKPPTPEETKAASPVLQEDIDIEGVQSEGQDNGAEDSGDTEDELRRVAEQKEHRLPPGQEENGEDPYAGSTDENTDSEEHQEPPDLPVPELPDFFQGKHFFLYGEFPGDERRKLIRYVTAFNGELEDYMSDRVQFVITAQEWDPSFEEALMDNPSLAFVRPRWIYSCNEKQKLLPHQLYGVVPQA", "UniProt Q6NZY4": "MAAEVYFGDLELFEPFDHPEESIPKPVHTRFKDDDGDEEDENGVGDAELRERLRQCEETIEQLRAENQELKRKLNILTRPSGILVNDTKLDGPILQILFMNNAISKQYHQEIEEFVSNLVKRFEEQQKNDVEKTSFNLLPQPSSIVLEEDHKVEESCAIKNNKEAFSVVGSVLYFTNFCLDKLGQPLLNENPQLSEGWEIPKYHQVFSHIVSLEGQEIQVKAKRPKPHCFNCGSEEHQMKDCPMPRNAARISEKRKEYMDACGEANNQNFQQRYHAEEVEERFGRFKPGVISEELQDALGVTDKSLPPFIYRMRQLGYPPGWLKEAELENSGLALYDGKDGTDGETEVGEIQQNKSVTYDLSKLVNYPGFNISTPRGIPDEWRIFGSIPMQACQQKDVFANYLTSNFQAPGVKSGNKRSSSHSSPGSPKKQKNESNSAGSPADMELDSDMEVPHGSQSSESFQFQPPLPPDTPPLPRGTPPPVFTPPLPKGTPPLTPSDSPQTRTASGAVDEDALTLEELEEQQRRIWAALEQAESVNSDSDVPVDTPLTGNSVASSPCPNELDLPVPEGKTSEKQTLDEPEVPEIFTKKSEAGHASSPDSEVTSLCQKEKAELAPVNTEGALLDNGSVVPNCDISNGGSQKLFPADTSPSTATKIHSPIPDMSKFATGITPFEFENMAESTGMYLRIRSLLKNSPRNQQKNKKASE", "UniProt Q8NHG8": "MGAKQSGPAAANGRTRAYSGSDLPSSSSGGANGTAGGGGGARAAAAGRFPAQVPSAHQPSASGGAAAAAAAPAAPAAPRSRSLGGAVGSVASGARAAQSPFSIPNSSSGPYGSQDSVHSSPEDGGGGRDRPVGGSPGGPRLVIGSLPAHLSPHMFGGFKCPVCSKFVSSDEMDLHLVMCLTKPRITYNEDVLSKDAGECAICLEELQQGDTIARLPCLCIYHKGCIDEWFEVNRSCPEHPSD"}, "source": "the supplement of paper PMC5836539", "key": {"XL888 [1]": {"compound": "T1, CC[C@@H](C)Nc1cc(C(=O)N[C@H]2C[C@H]3CC[C@@H](C2)N3c2ccc(C(=O)C3CC3)cn2)c(C)cc1C(N)=O [XL888]", "assay": "phosphopeptide melting temperature shift (XL888 minus DMSO); higher = stabilised by drug treatment", "conditions": "100 µM; treatment time 2 h; layout: intact cells; SK-Mel 24", "method": "(§1)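 Phospho-TPP in intact SK-Mel 24 cells treated with 100 uM XL888 or DMSO for 2 h, heated at 10 temperatures (37-67 C) for 3 min, soluble fraction TMT10plex-labelled and TiO2 phospho-enriched. Melting curves were fitted per phosphopeptide; the value is the melting point difference (drug minus vehicle) in each of two biological replicates.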"}, "XL888 [2]": {"compound": "T1, XL888", "assay": "phosphopeptide melting temperature shift (XL888 minus DMSO); higher = stabilised by drug treatment", "conditions": "100 µM; treatment time 2 h; layout: intact cells; SK-Mel 28", "method": "as §1, with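 “28” for “24”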"}}, "note": "± gives the standard deviation of the averaged measurements. Repeats in this data set agree poorly, so a single value says little.", "data": [{"target": "UniProt Q92538-3_phosphosite_1298 (phosphosite position: 1298)", "values": [{"measurement": "phosphopeptide melting temperature shift", "setting": "XL888 [1]", "value": 7.03, "unit": "°C"}, {"measurement": "phosphopeptide melting temperature shift", "setting": "XL888 [2]", "value": "2.55 ± 0.13", "unit": "°C"}]}, {"target": "UniProt Q92538-3_phosphosite_1318 (phosphosite position: 1318)", "values": [{"measurement": "phosphopeptide melting temperature shift", "setting": "XL888 [1]", "value": "1.3 ± 0.37", "unit": "°C"}, {"measurement": "phosphopeptide melting temperature shift", "setting": "XL888 [2]", "value": "1.3 ± 1.9", "unit": "°C"}]}, {"target": "UniProt Q92538-3_phosphosite_1337 (phosphosite position: 1337)", "values": [{"measurement": "phosphopeptide melting temperature shift", "setting": "XL888 [1]", "value": 1.47, "unit": "°C"}, {"measurement": "phosphopeptide melting temperature shift", "setting": "XL888 [2]", "value": 0.0248, "unit": "°C"}]}, {"target": "UniProt Q92769-3_phosphosite_364 (phosphosite position: 364)", "values": [{"measurement": "phosphopeptide melting temperature shift", "setting": "XL888 [1]", "value": 0.188, "unit": "°C"}, {"measurement": "phosphopeptide melting temperature shift", "setting": "XL888 [2]", "value": "0.845 ± 0.17", "unit": "°C"}]}, {"target": "UniProt Q92974-3_phosphosite_858 (phosphosite position: 858)", "values": [{"measurement": "phosphopeptide melting temperature shift", "setting": "XL888 [1]", "value": -1.08, "unit": "°C"}, {"measurement": "phosphopeptide melting temperature shift", "setting": "XL888 [2]", "value": "-1.03 ± 1.3", "unit": "°C"}]}, {"target": "UniProt Q99543-2_phosphosite_47 (phosphosite position: 47)", "values": [{"measurement": "phosphopeptide melting temperature shift", "setting": "XL888 [1]", "value": 0.239, "unit": "°C"}, {"measurement": "phosphopeptide melting temperature shift", "setting": "XL888 [2]", "value": "-1.87 ± 1.7", "unit": "°C"}]}, {"target": "UniProt Q99613-2_phosphosite_39 (phosphosite position: 39)", "values": [{"measurement": "phosphopeptide melting temperature shift", "setting": "XL888 [1]", "value": "0.000891 ± 0.21", "unit": "°C"}, {"measurement": "phosphopeptide melting temperature shift", "setting": "XL888 [2]", "value": -1.4, "unit": "°C"}]}, {"target": "UniProt Q99613-2_phosphosite_156 (phosphosite position: 156)", "values": [{"measurement": "phosphopeptide melting temperature shift", "setting": "XL888 [1]", "value": 0.727, "unit": "°C"}, {"measurement": "phosphopeptide melting temperature shift", "setting": "XL888 [2]", "value": 2.81, "unit": "°C"}]}, {"target": "UniProt Q99719-2_phosphosite_234 (phosphosite position: 234)", "values": [{"measurement": "phosphopeptide melting temperature shift", "setting": "XL888 [1]", "value": 1.44, "unit": "°C"}, {"measurement": "phosphopeptide melting temperature shift", "setting": "XL888 [2]", "value": "-0.801 ± 1.2", "unit": "°C"}]}, {"target": "WDR55 phosphosite_14 (phosphosite position: 14) (UniProt Q9H6Y2)", "values": [{"measurement": "phosphopeptide melting temperature shift", "setting": "XL888 [1]", "value": -1.7, "unit": "°C"}, {"measurement": "phosphopeptide melting temperature shift", "setting": "XL888 [2]", "value": 1.79, "unit": "°C"}]}, {"target": "WDR70 phosphosite_638 (phosphosite position: 638) (UniProt Q9NW82)", "values": [{"measurement": "phosphopeptide melting temperature shift", "setting": "XL888 [1]", "value": 0.341, "unit": "°C"}, {"measurement": "phosphopeptide melting temperature shift", "setting": "XL888 [2]", "value": -0.000965, "unit": "°C"}]}, {"target": "WDR77 phosphosite_5 (phosphosite position: 5) (UniProt Q9BQA1)", "values": [{"measurement": "phosphopeptide melting temperature shift", "setting": "XL888 [1]", "value": -0.303, "unit": "°C"}, {"measurement": "phosphopeptide melting temperature shift", "setting": "XL888 [2]", "value": 1.72, "unit": "°C"}]}, {"target": "XRCC1 phosphosite_447 (phosphosite position: 447) (UniProt P18887)", "values": [{"measurement": "phosphopeptide melting temperature shift", "setting": "XL888 [1]", "value": 0.16, "unit": "°C"}, {"measurement": "phosphopeptide melting temperature shift", "setting": "XL888 [2]", "value": "0.298 ± 0.27", "unit": "°C"}]}, {"target": "ZCCHC8 phosphosite_427 (phosphosite position: 427) (UniProt Q6NZY4)", "values": [{"measurement": "phosphopeptide melting temperature shift", "setting": "XL888 [1]", "value": 0.0318, "unit": "°C"}, {"measurement": "phosphopeptide melting temperature shift", "setting": "XL888 [2]", "value": "0.473 ± 1.6", "unit": "°C"}]}, {"target": "ZNRF2 phosphosite_135 (phosphosite position: 135) (UniProt Q8NHG8)", "values": [{"measurement": "phosphopeptide melting temperature shift", "setting": "XL888 [1]", "value": -0.922, "unit": "°C"}, {"measurement": "phosphopeptide melting temperature shift", "setting": "XL888 [2]", "value": 0.362, "unit": "°C"}]}]}
